Some entries share one result that the patent states for a list of compounds.
Columns and labels:
[1] = test system: NF-κB driven transcription (pTRH1-NF-κB-dscGFP reporter, 293 cells); experiment: NF-kB/293/GFP reporter cell assay; assay type: cell-based; conditions: 0, 0.2, 1, 10, 20 and 40 μM; TNF-α induced
Protocol: (§1) Two reporter cell assays were used to determine the ability of the compounds of Examples 1-12 to inhibit NF-κB driven transcription. The first assay was a 293-cell based assay with a stably integrated pNF-κB-luc reporter plasmid containing 3 NF-κB promoter elements. The second assay was a 293-cell based assay with a stably integrated pTRH1-NF-κB-dscGFP reporter containing 4 NF-κB promoter elements. Cells were treated with 0, 0.2, 1, 10, 20 and 40 μM of the compounds of Example 1-12 for 2 hours then were induced with 20 ng/ml TNF-α for 18 hours. Following the induction, luminescence or fluorescence was quantified using a Beckman-Coulter 2300 plate reader. […] As a control, 0.5% DMSO treated and untreated cells were compared to verify that the compounds of Examples 1-12 had no effect on the expression of luciferase or in the readout of the assay. There was a slight decrease in the output from the assay in the DMSO treated population although it was not statistically significant. As a result of the controls, the decrease in activity in the drug treated samples was compared to the DMSO control sample.

[2] = test system: NF-κB driven transcription (pNF-κB-luc reporter, 293 cells); experiment: 293/NF-kB-luc reporter cell assay; assay type: cell-based; conditions: for inhibition of expression of the luciferase gene: 0, 0.2, 1, 10, 20 and 40 μM, TNF-α induced
Protocol: as §1

SMILES	inhibition of expression of the Green fluorescent protein gene [1]	inhibition of expression of the luciferase gene [2]	inhibition of NF-κB signal transduction pathways in cells [2]
CC(C)CC(=O)Oc1ccccc1C(=O)NC1=CC(=O)C2OC2C1O (racemic) [Example 1, (±)-2-(2-hydroxy-5-oxo-7-oxabicyclo[4.1.0]hept-3-en-3-ylcarbamoyl)phenyl 3-methylbutanoate]	inhibited the expression of the Green fluorescent protein gene in a dose dependent manner	inhibit the expression of the luciferase gene in a dose dependent manner	observed to inhibit NF-κB signal transduction pathways in cells
CC(C)OC(=O)Oc1ccccc1C(=O)NC1=CC(=O)C2OC2C1OC(=O)OC(C)C (racemic) [Example 2, (±)-3-(2-isopropoxycarbonyloxy-benzoylamino)-5-oxo-7-oxa-bicyclo[4.1.0]hept-3-en-2-yl ester isopropyl ester]	inhibited the expression of the Green fluorescent protein gene in a dose dependent manner	inhibit the expression of the luciferase gene in a dose dependent manner	observed to inhibit NF-κB signal transduction pathways in cells
O=C(CC1CCCCC1)Oc1ccccc1C(=O)NC1=CC(=O)C2OC2C1O (racemic) [Example 3, (±)-2-(2-hydroxy-5-oxo-7-oxabicyclo[4.1.0]hept-3-en-3-ylcarbamoyl)phenyl 2-cyclohexylacetate]	inhibited the expression of the Green fluorescent protein gene in a dose dependent manner	inhibit the expression of the luciferase gene in a dose dependent manner	observed to inhibit NF-κB signal transduction pathways in cells
CCCC(C)C(=O)Oc1ccccc1C(=O)NC1=CC(=O)C2OC2C1O (racemic) [Example 4, (±)-2-(2-hydroxy-5-oxo-7-oxabicyclo[4.1.0]hept-3-en-3-ylcarbamoyl)phenyl 2-methylpentanoate]	inhibited the expression of the Green fluorescent protein gene in a dose dependent manner	inhibit the expression of the luciferase gene in a dose dependent manner	observed to inhibit NF-κB signal transduction pathways in cells
CCCCC(CC)C(=O)Oc1ccccc1C(=O)NC1=CC(=O)C2OC2C1O (racemic) [Example 5, (±)-2-(2-hydroxy-5-oxo-7-oxabicyclo[4.1.0]hept-3-en-3-ylcarbamoyl)phenyl 2-ethylhexanoate]	inhibited the expression of the Green fluorescent protein gene in a dose dependent manner	inhibit the expression of the luciferase gene in a dose dependent manner	observed to inhibit NF-κB signal transduction pathways in cells
CC(C)(C)CC(=O)Oc1ccccc1C(=O)NC1=CC(=O)C2OC2C1O (racemic) [Example 6, (±)-2-(2-hydroxy-5-oxo-7-oxabicyclo[4.1.0]hept-3-en-3-ylcarbamoyl)phenyl 3,3-dimethylbutanoate]	inhibited the expression of the Green fluorescent protein gene in a dose dependent manner	inhibit the expression of the luciferase gene in a dose dependent manner	observed to inhibit NF-κB signal transduction pathways in cells
CC(C)OC(=O)Oc1ccccc1C(=O)NC1=CC(=O)C2OC2C1O (racemic) [Example 7, (±)-2-(2-hydroxy-5-oxo-7-oxabicyclo[4.1.0]hept-3-en-3-ylcarbamoyl)phenyl isopropyl carbonate]	inhibited the expression of the Green fluorescent protein gene in a dose dependent manner	inhibit the expression of the luciferase gene in a dose dependent manner	observed to inhibit NF-κB signal transduction pathways in cells
CC(C)(C)CC(=O)Oc1ccccc1C(=O)NC1=CC(=O)C2OC2C1OC(=O)CC(C)(C)C (racemic) [Example 9, (±)-2-(2-(3,3-dimethylbutanoyloxy)-5-oxo-7-oxabicyclo[4.1.0]hept-3-en-3-ylcarbamoyl)phenyl 3,3-dimethylbutanoate]	inhibited the expression of the Green fluorescent protein gene in a dose dependent manner	inhibit the expression of the luciferase gene in a dose dependent manner	observed to inhibit NF-κB signal transduction pathways in cells
O=C(Nc1ccccc1)OC1C(NC(=O)c2ccccc2O)=CC(=O)C2OC21 (racemic) [Example 11, (±)-3-(2-hydroxybenzamido)-5-oxo-7-oxabicyclo[4.1.0]hept-3-en-2-yl phenylcarbamate]	inhibited the expression of the Green fluorescent protein gene in a dose dependent manner	inhibit the expression of the luciferase gene in a dose dependent manner	observed to inhibit NF-κB signal transduction pathways in cells

Reference: patent US20120088827A1 (Profectus Biosciences, Inc., priority 2009, published 2012)
